Literature values, collected in patent US20120141611A1, “METHODS AND COMPOSITIONS USING ERGOTHIONEINE TO TREAT A VARIETY OF HEALTH RELATED FACTORS” (Oxis International Inc., priority 2010, published 2012).
At least one compound was matched to its structure with a doubt left.

Tests used:
[1] = cited from earlier work
[2] = cited from earlier work; remark: listed apart in the source
[3] = cited from earlier work; remark: listed apart in the source
[4] = cited from earlier work; remark: listed apart in the source

SMILES: C[N+](C)(C)[C@@H](Cc1c[nH]c(=S)[nH]1)C(=O)[O-] [Ergothioneine, ergothioneine]
- Peroxynitrite-induced inactivation of alpha-1-antiproteinase [1]: protects against
- Peroxynitrite-mediated oxidation of amino acids such as nitration of tyrosine [2]: inhibits
- Affinity for singlet oxygen relative to glutathione [3]: 10 fold
- Direct scavenging of superoxide anion, hydrogen peroxide or lipid peroxides [4]: does not function as a direct scavenger
